Experimental data from patent US20100196321A1, “COMPOUNDS” (GLAXOSMITHKLINE LLC, priority 2009, published 2010).
Some results were stated once for a whole list of compounds, not compound by compound. Some compounds share one range, which may span the group rather than tell each member.

target: T1, HCV Genotype 1a NS3-4A Protease Domain (Hepatitis C virus genotype 1a, UniProt P27958, T1100M/T1173A); assay: Hepatitis C NS3 Protease FRET Assay (QXL520); type: biochemical; conditions: 5-FAM/QXL520 substrate

Structure (SMILES)	IC50 [nM]
COc1ccc2c(O[C@@H]3C[C@H]4C(=O)N[C@]5(C(=O)NS(=O)(=O)C6CC6)C[C@H]5/C=C\CCCCC[C@H](NC(=O)N(C)C)C(=O)N4C3)cc(-c3nc(C4CC4)cs3)nc2c1C [Example 6, (2R,6S,13aS,14aR,16aS)-N-(cyclopropylsulfonyl)-2-{[2-(4-cyclopropyl-1,3-thiazol-2-yl)-8-methyl-7-(methyloxy)-4-quinolinyl]oxy}-6-{[(dimethylamino)carbonyl]amino}-5,16-dioxo-1,2,3,6,7,8,9,10,11,13a,14,15,16,16a-tetradecahydrocyclopropa[e]pyrrolo[1,2-a][1,4]diazacyclopentadecine-14a(5H)-carboxamide]	0.1 to 2
COc1ccc2c(O[C@@H]3C[C@H]4C(=O)N[C@]5(C(=O)NS(=O)(=O)C6CC6)C[C@H]5/C=C\CCCCC[C@H](NC(=O)N(C)C(C)C)C(=O)N4C3)cc(-c3nc(C4CC4)cs3)nc2c1C [Example 7, (2R,6S,13aS,14aR,16aS)-N-(cyclopropylsulfonyl)-2-{[2-(4-cyclopropyl-1,3-thiazol-2-yl)-8-methyl-7-(methyloxy)-4-quinolinyl]oxy}-6-({[methyl(1-methylethyl)amino]carbonyl}amino)-5,16-dioxo-1,2,3,6,7,8,9,10,11,13a,14,15,16,16a-tetradecahydrocyclopropa[e]pyrrolo[1,2-a][1,4]diazacyclopentadecine-14a(5H)-carboxamide]	0.1 to 2

target: T1, HCV Genotype 1a NS3-4A Protease Domain; assay: Hepatitis C NS3 Protease FRET Assay (RET-S1); type: biochemical; conditions: RET-S1 substrate
Protocol: Hepatitis C NS3 Protease FRET Assay (RET-S1) Using the HCV Genotype 1a NS3-4A Protease Domain
Compounds were tested as inhibitors of HCV NS3-4A protease domain in 10 μl reactions which contained 50 mM HEPES pH 7.5, 20% sucrose, 0.05% NP40, 5 mM DTT, 1 μM 4A peptide ([…] that served as a cofactor and activated the enzyme in the assay) (prepared by standard synthetic methods), 5 μM RET S1 substrate (Ac-DED(EDANS)EEAbu ψ[COO] ASK(DABCYL)) and 1 nM NS3 protease domain. The RET S1 substrate (Ac-Asp-Glu-Asp(EDANS)-Glu-Glu-Abu-ψ-[COO]-Ala-Ser-Lys(DABCYL)-NH2) was purchased from Anaspec, Inc. (Taliani et. al, 1996, Anal Biochem). “ψ-[COO]” refers to the location of the ester bond within the molecule
Cleavage of the substrate, which is based on the natural NS4A/NS4B junction (DEMEECASHL), was monitored by measuring the increase in fluorescence with 355 nm excitation/495 nm emission in a Molecular Devices SpectraMax Gemini plate reader. Compounds were dissolved in DMSO and tested at 10 μM in duplicate or in dose response curves with usually 10 μM top concentration and 3-fold dilutions. The maximum level of DMSO was 5%. The standard compound in the assay was the compound BILN-2061 (Lamarre at al., (2003) Nature, 426, 186-189).

Structure (SMILES)	IC50 [nM]
CCN(C)C(=O)N[C@H]1CCCCC/C=C\[C@@H]2C[C@@]2(C(=O)NS(=O)(=O)C2CC2)NC(=O)[C@@H]2C[C@@H](Oc3cc(-c4nc(C(C)C)cs4)nc4c(C)c(OC)ccc34)CN2C1=O [Example 17]	1 to 10
COc1ccc2c(O[C@@H]3C[C@H]4C(=O)N[C@]5(C(=O)NS(=O)(=O)C6CC6)C[C@H]5/C=C\CCCCC[C@H](NC(=O)N5CCC5)C(=O)N4C3)cc(-c3nc(C(C)C)cs3)nc2c1C [Example 18, (2R,6S,13aS,14aR,16aS)-6-[(1-azetidinylcarbonyl)amino]-N-(cyclopropylsulfonyl)-2-{[8-methyl-2-[4-(1-methylethyl)-1,3-thiazol-2-yl]-7-(methyloxy)-4-quinolinyl]oxy}-5,16-dioxo-1,2,3,6,7,8,9,10,11,13a,14,15,16,16a-tetradecahydrocyclopropa[e]pyrrolo[1,2-a][1,4]diazacyclopentadecine-14a(5H)-carboxamide]	1 to 10
CCCN(CC1CC1)C(=O)N[C@H]1CCCCC/C=C\[C@@H]2C[C@@]2(C(=O)NS(=O)(=O)C2CC2)NC(=O)[C@@H]2C[C@@H](Oc3cc(-c4nc(C(C)C)cs4)nc4c(C)c(OC)ccc34)CN2C1=O [Example 19, (2R,6S,13aS,14aR,16aS)-6-({[(cyclopropylmethyl)(propyl)amino]carbonyl}amino)-N-(cyclopropylsulfonyl)-2-{[8-methyl-2-[4-(1-methylethyl)-1,3-thiazol-2-yl]-7-(methyloxy)-4-quinolinyl]oxy}-5,16-dioxo-1,2,3,6,7,8,9,10,11,13a,14,15,16,16a-tetradecahydrocyclopropa[e]pyrrolo[1,2-a][1,4]diazacyclopentadecine-14a(5H)-carboxamide]	1 to 10
COc1ccc2c(O[C@@H]3C[C@H]4C(=O)N[C@]5(C(=O)NS(=O)(=O)C6CC6)C[C@H]5/C=C\CCCCC[C@H](NC(=O)N5CCC(c6ccccc6)CC5)C(=O)N4C3)cc(-c3nc(C(C)C)cs3)nc2c1C [Example 20, (2R,6S,13aS,14aR,16aS)-N-(cyclopropylsulfonyl)-2-{[8-methyl-2-[4-(1-methylethyl)-1,3-thiazol-2-yl]-7-(methyloxy)-4-quinolinyl]oxy}-5,16-dioxo-6-{[(4-phenyl-1-piperidinyl)carbonyl]amino}-1,2,3,6,7,8,9,10,11,13a,14,15,16,16a-tetradecahydrocyclopropa[e]pyrrolo[1,2-a][1,4]diazacyclopentadecine-14a(5H)-carboxamide]	1 to 10
COc1ccc2c(O[C@@H]3C[C@H]4C(=O)N[C@]5(C(=O)NS(=O)(=O)C6CC6)C[C@H]5/C=C\CCCCC[C@H](NC(=O)N5CCC(N6CCCC6)CC5)C(=O)N4C3)cc(-c3nc(C(C)C)cs3)nc2c1C [Example 21, (2R,6S,13aS,14aR,16aS)-N-(cyclopropylsulfonyl)-2-{[8-methyl-2-[4-(1-methylethyl)-1,3-thiazol-2-yl]-7-(methyloxy)-4-quinolinyl]oxy}-5,16-dioxo-6-({[4-(1-pyrrolidinyl)-1-piperidinyl]carbonyl}amino)-1,2,3,6,7,8,9,10,11,13a,14,15,16,16a-tetradecahydrocyclopropa[e]pyrrolo[1,2-a][1,4]diazacyclopentadecine-14a(5H)-carboxamide]	1 to 10
COc1ccc2c(O[C@@H]3C[C@H]4C(=O)N[C@]5(C(=O)NS(=O)(=O)C6CC6)C[C@H]5/C=C\CCCCC[C@H](NC(=O)N5CCC(O)CC5)C(=O)N4C3)cc(-c3nc(C(C)C)cs3)nc2c1C [Example 22, (2R,6S,13aS,14aR,16aS)-N-(cyclopropylsulfonyl)-6-{[(4-hydroxy-1-piperidinyl)carbonyl]amino}-2-{[8-methyl-2-[4-(1-methylethyl)-1,3-thiazol-2-yl]-7-(methyloxy)-4-quinolinyl]oxy}-5,16-dioxo-1,2,3,6,7,8,9,10,11,13a,14,15,16 ,16a-tetradecahydrocyclopropa[e]pyrrolo[1,2-a][1,4]diazacyclopentadecine-14a(5H)-carboxamide]	1 to 10
COc1ccc2c(O[C@@H]3C[C@H]4C(=O)N[C@]5(C(=O)NS(=O)(=O)C6CC6)C[C@H]5/C=C\CCCCC[C@H](NC(=O)N5CCC(CC(N)=O)CC5)C(=O)N4C3)cc(-c3nc(C(C)C)cs3)nc2c1C [Example 23, (2R,6S,13aS,14aR,16aS)-6-({[4-(2-amino-2-oxoethyl)-1-piperidinyl]carbonyl}amino)-N-(cyclopropylsulfonyl)2-{[8-methyl-2-[4-(1-methylethyl)-1,3-thiazol-2-yl]-7-(methyloxy)-4-quinolinyl]oxy}-5,16-dioxo-1,2,3,6,7,8,9,10,11,13a,14,15,16,16a-tetradecahydrocyclopropa[e]pyrrolo[1,2-a][1,4]diazacyclopentadecine-14a(5H)-carboxamide]	1 to 10
COc1ccc2c(O[C@@H]3C[C@H]4C(=O)N[C@]5(C(=O)NS(=O)(=O)C6CC6)C[C@H]5/C=C\CCCCC[C@H](NC(=O)N5CC6CCCC6C5)C(=O)N4C3)cc(-c3nc(C(C)C)cs3)nc2c1C (stereo partly drawn) [Example 24, (2R,6S,13aS,14aR,16aS)-N-(cyclopropylsulfonyl)-6-[(hexahydrocyclopenta[c]pyrrol-2(1H)-ylcarbonyl)amino]-2-{[8-methyl-2-[4-(1-methylethyl)-1,3-thiazol-2-yl]-7-(methyloxy)-4-quinolinyl]oxy}-5,16-dioxo-1,2,3,6,7,8,9,10,11,13a,14,15,16,16a-tetradecahydrocyclopropa[e]pyrrolo[1,2-a][1,4]diazacyclopentadecine-14a(5H)-carboxamide]	1 to 10
COc1ccc2c(O[C@@H]3C[C@H]4C(=O)N[C@]5(C(=O)NS(=O)(=O)C6CC6)C[C@H]5/C=C\CCCCC[C@H](NC(=O)N5CCC(CO)CC5)C(=O)N4C3)cc(-c3nc(C(C)C)cs3)nc2c1C [Example 25, (2R,6S,13aS,14aR,16aS)-N-(cyclopropylsulfonyl)-6-({[4-(hydroxymethyl)-1-piperidinyl]carbonyl}amino)-2-{[8-methyl-2-[4-(1-methylethyl)-1,3-thiazol-2-yl]-7-(methyloxy)-4-quinolinyl]oxy}-5,16-dioxo-1,2,3,6,7,8,9,10,11,13a,14,15,16,16a-tetradecahydrocyclopropa[e]pyrrolo[1,2-a][1,4]diazacyclopentadecine-14a(5H)-carboxamide]	1 to 10
CCN(CC)C(=O)N[C@H]1CCCCC/C=C\[C@@H]2C[C@@]2(C(=O)NS(=O)(=O)C2CC2)NC(=O)[C@@H]2C[C@@H](Oc3cc(-c4nc(C5CC5)cs4)nc4c(C)c(OC)ccc34)CN2C1=O [Example 26, (2R,6S,13aS,14aR,16aS,Z)-N-(cyclopropylsulfonyl)-2-(2-(4-cyclopropylthiazol-2-yl)-7-methoxy-8-methylquinolin-4-yloxy)-6-(3,3-diethylureido)-5,16-dioxo-1,2,3,5,6,7,8,9,10,11,13a,14,14a,15,16,16a-hexadecahydrocyclopropa[e]pyrrolo[1,2-a][1,4]diazacyclopentadecine-14a-carboxamide]	1 to 10
CCN(CC)C(=O)N[C@H]1CCCCC/C=C\[C@@H]2C[C@@]2(C(=O)NS(=O)(=O)C2CC2)NC(=O)[C@@H]2C[C@@H](Oc3cc(-c4nc(C(F)(F)F)cs4)nc4c(Cl)c(OC)ccc34)CN2C1=O [Example 29, Cycloprobanesulfonic acid [18-[8-chloro-7-methoxy-2-(4-trifluoromethyl-thiazol-2-yl)-quinolin-4-yloxy]-14-(3,3-diethyl-ureido)-2,15-dioxo-3,16-diaza-tricyclo[14.3.0.04,6]nonadec-7-ene-4-carbonyl]-amide]	1 to 10
